Data on one sequence can be found in article PMC10247153.

The comparison behind a weaker result is the experiment's own reference, which may not be listed here. Where a protein sequence is shown, tags need not be part of it.

This data set deals with T1, KDM5C ARID (Homo sapiens) (UniProt P41229).
T1 sequence (looked up): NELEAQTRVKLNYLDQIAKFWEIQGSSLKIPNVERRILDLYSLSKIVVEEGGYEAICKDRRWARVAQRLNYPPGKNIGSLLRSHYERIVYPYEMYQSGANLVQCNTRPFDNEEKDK
Kind of data set: EMSA. The following applies: minimal binding, no Kd given; EMSA: 50 mM HEPES pH 7.5, 50 mM KCl, 1 mM BME, 0.01% Tween-20, 0.01% BSA, 5% sucrose, 1 h on ice; 100 nM nucleosome or 147 bp DNA, 500 nM 20 bp DNA; gel at 4 C; recombinant protein; residues 73-188; protein details: 6xHis-SUMO cleaved.

On to “GCCGGTCGCGAACAGCGACC (double strand) [3' flanking (linker) DNA 20 bp]”, for which the binding result is listed as “binds more weakly”.
